Experimental data reported in article PMC7470949.
These are yes or no findings as the source states them, for the method shown. In cells and extracts the contact can be indirect. A yes stands for co-enrichment or nearness to the bait. Other partners may have been found.

Chains of the proteins cited; added tags and fusions are not shown.
UniProt P38919: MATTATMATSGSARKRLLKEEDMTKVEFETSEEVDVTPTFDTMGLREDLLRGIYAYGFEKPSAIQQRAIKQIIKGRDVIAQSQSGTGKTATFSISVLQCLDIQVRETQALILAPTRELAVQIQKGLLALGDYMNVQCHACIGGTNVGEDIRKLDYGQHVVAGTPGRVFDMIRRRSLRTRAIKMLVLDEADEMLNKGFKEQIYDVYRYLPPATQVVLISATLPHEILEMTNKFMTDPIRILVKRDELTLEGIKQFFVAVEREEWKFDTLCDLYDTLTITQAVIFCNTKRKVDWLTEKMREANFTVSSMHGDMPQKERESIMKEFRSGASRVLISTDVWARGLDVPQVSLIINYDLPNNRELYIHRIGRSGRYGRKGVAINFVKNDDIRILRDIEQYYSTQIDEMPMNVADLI
UniProt O15234: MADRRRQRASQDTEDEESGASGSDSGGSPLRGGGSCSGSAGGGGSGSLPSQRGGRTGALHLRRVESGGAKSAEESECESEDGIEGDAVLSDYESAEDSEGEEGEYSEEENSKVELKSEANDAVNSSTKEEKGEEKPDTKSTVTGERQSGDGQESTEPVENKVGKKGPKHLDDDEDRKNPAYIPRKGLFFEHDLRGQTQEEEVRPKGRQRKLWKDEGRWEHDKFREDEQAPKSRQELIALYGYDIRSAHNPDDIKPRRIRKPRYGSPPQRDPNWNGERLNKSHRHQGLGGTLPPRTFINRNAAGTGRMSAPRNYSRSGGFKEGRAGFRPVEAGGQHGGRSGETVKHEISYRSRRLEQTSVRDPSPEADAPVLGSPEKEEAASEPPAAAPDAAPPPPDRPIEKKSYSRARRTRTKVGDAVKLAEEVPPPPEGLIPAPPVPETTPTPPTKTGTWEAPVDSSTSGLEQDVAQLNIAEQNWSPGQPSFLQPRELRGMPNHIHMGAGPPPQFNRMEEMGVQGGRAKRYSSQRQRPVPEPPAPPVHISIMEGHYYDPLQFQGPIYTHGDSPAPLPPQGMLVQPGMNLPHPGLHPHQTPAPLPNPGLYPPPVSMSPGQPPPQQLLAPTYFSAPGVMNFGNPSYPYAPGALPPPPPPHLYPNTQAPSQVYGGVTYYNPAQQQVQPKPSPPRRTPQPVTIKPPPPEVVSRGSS

Biological target: FLAG-tagged EIF4A3 (UniProt P38919)
Test: affinity purification with mass spectrometry; SILAC; FLAG or FLAG-EIF4A3 from 293 WT cells and CASC3 KO clone H cells treated with CASC3 siRNA; lysis in buffer E with RNase A (20 mM HEPES-KOH pH 7.9, 100 mM KCl); anti-FLAG M2 magnetic beads, 4°C, 2 h; eluted with FLAG peptides

## CASC3 (from UniProt O15234 1-703)
  binding: binds
